Some of the results follow. Many values rest on one well or one pass, so single values are uncertain.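 The apoptosis fraction was the count of cleaved-PARP antibody-stained nuclei relative to all DNA-stained nuclei, imaged in 1,536-well plates. Screening doses were set so most cells survived, and baseline and induced cleaved-PARP levels vary greatly across cell lines.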
System: WM1745
Assay: cleaved PARP positive nuclei fraction relative to DMSO control; melanoma cells; higher = more apoptosis
Settings: library dose: low library concentration; 72 h

Row | SMILES | cleaved PARP positive nuclei fraction
1 | O=C(CCCCCCC(=O)Nc1ccccc1)NO [vorinostat] + CC(C)(C)c1cnc(CSc2cnc(NC(=O)C3CCNCC3)s2)o1 [SNS-032] (first compound 0.08 µM, partner dose 0.01 µM) | 73.2%
2 | C=CCNC1=C2C[C@@H](C)C[C@H](OC)[C@H](O)[C@@H](C)/C=C(\C)[C@H](OC(N)=O)[C@@H](OC)/C=C\C=C(/C)C(=O)NC(=CC1=O)C2=O [Tanespimycin] + CC(C)(C)c1cnc(CSc2cnc(NC(=O)C3CCNCC3)s2)o1 [SNS-032] (first compound 0.002 µM, partner dose 0.01 µM) | 72.1%
3 | CC(=O)c1c(C)c2cnc(Nc3ccc(N4CCNCC4)cn3)nc2n(C2CCCC2)c1=O [palbociclib] + OCCn1cc(-c2cnc3nnn(Cc4ccc5ncccc5c4)c3n2)cn1 [PF04217903] (first compound 0.04 µM, partner dose 1 µM) | 124%
4 | C=CCNC1=C2C[C@@H](C)C[C@H](OC)[C@H](O)[C@@H](C)/C=C(\C)[C@H](OC(N)=O)[C@@H](OC)/C=C\C=C(/C)C(=O)NC(=CC1=O)C2=O [Tanespimycin] + CN(NC(=O)CC(=O)NN(C)C(=S)c1ccccc1)C(=S)c1ccccc1 [STA4783] (first compound 0.002 µM, partner dose 0.006 µM) | 168%
5 | CC1(C)NC(=O)N(c2ccc([N+](=O)[O-])c(C(F)(F)F)c2)C1=O [nilutamide] + CCCCCCCCCCCC1=C(O)C(=O)C=C(O)C1=O [Embelin] (first compound 1 µM, partner dose 1.2 µM) | 94.4%
6 | Cn1c(Nc2ccc(C(F)(F)F)cc2)nc2cc(Oc3ccnc(-c4ncc(C(F)(F)F)[nH]4)c3)ccc21 + COCC[n+]1c2c(n(Cc3cnccn3)c1C)C(=O)c1ccccc1C2=O [YM155] (first compound 0.08 µM, partner dose 0.0004 µM) | 135%

Copied from the list:
cleaved PARP positive nuclei fraction, O=C(CCCCCCC(=O)Nc1ccccc1)NO [vorinostat] + CC(C)(C)c1cnc(CSc2cnc(NC(=O)C3CCNCC3)s2)o1 [SNS-032] (first compound 0.08 µM, partner dose 0.01 µM) is entered as 73.2%
cleaved PARP positive nuclei fraction, Cn1c(Nc2ccc(C(F)(F)F)cc2)nc2cc(Oc3ccnc(-c4ncc(C(F)(F)F)[nH]4)c3)ccc21 + COCC[n+]1c2c(n(Cc3cnccn3)c1C)C(=O)c1ccccc1C2=O [YM155] (first compound 0.08 µM, partner dose 0.0004 µM) is entered as 135%

System: WM3526
Assay: as above
Settings: library dose: low library concentration; 72 h

Row | SMILES | cleaved PARP positive nuclei fraction
7 | O=C(CCCCCCC(=O)Nc1ccccc1)NO [vorinostat] + O=C(Nc1cccc(Cl)c1)Nc1ncc(CCNc2ncnc3ccsc23)s1 [SNS314] (first compound 0.08 µM, partner dose 0.0008 µM) | 58.8%
8 | Cn1cncc1[C@@](N)(c1ccc(Cl)cc1)c1ccc2c(c1)c(-c1cccc(Cl)c1)cc(=O)n2C [tipifarnib] + O=C(Nc1ccccc1)c1cc([N+](=O)[O-])ccc1Cl [GW9662] (first compound 0.01 µM, partner dose 2 µM) | 75.7%
9 | C[C@@H]1CCN(C(=O)CC#N)C[C@@H]1N(C)c1ncnc2[nH]ccc12 + N#Cc1c(O)c2c(-c3ccc(-c4ccccc4O)cc3)csc2[nH]c1=O [A769662] (first compound 1 µM, partner dose 2 µM) | 63.8%
10 | COCC[n+]1c2c(n(Cc3cnccn3)c1C)C(=O)c1ccccc1C2=O + CN(NC(=O)CC(=O)NN(C)C(=S)c1ccccc1)C(=S)c1ccccc1 [STA4783] (first compound 0.0004 µM, partner dose 0.006 µM) | 70.3%
11 | O=C(CCCCCCC(=O)Nc1ccccc1)NO [vorinostat] + COC(=O)c1sccc1S(=O)(=O)Nc1ccc(Nc2ccccc2)cc1OC [GSK0660] (first compound 0.08 µM, partner dose 1 µM) | 70%
12 | CO[C@@H]1[C@H](N(C)C(=O)c2ccccc2)C[C@H]2O[C@]1(C)n1c3ccccc3c3c4c(c5c6ccccc6n2c5c31)C(=O)NC4 [Midostaurin] + CN(NC(=O)CC(=O)NN(C)C(=S)c1ccccc1)C(=S)c1ccccc1 [STA4783] (first compound 0.08 µM, partner dose 0.006 µM) | 159%
13 | NC(=O)Nc1cc(-c2cccc(F)c2)sc1C(=O)N[C@H]1CCCNC1 + O=C1NC(=O)/C(=C/c2ccc(-c3ccc(F)cc3O)o2)S1 [AS252424] (first compound 0.02 µM, partner dose 1 µM) | 91.2%
14 | OCc1c[nH]c2ccccc12 [Indole-3-carbinol] + O=c1cc(-c2cccc3c2Sc2ccccc2S3)oc(N2CCOCC2)c1 [KU55933] (first compound 0.8 µM, partner dose 1 µM) | 66.5%
15 | COCC[n+]1c2c(n(Cc3cnccn3)c1C)C(=O)c1ccccc1C2=O + C[C@@H]1CCN(C(=O)CC#N)C[C@@H]1N(C)c1ncnc2[nH]ccc12 [CP690550] (first compound 0.0004 µM, partner dose 1 µM) | 164%
16 | CC(=O)c1c(C)c2cnc(Nc3ccc(N4CCNCC4)cn3)nc2n(C2CCCC2)c1=O [palbociclib] + COc1ccc(-c2ccc3c(N4CCOCC4)nc(N4C[C@@H](C)O[C@@H](C)C4)nc3n2)cc1CO [KU0063794] (first compound 0.04 µM, partner dose 0.02 µM) | 113%
17 | CC(=O)c1c(C)c2cnc(Nc3ccc(N4CCNCC4)cn3)nc2n(C2CCCC2)c1=O [palbociclib] + COc1ccc(Cl)c(Nc2nc3ccccc3nc2NS(=O)(=O)c2cccc(NC(=O)C(C)(C)N)c2)c1 [XL147] (first compound 0.04 µM, partner dose 0.8 µM) | 78.4%
18 | C=CCn1c(=O)c2cnc(Nc3ccc(N4CCN(C)CC4)cc3)nc2n1-c1cccc(C(C)(C)O)n1 + Cn1cncc1[C@@](N)(c1ccc(Cl)cc1)c1ccc2c(c1)c(-c1cccc(Cl)c1)cc(=O)n2C [tipifarnib] (first compound 0.02 µM, partner dose 0.01 µM) | 148%
19 | Cc1cc(N2CCOCC2)cc2[nH]c(-c3c(NC[C@@H](O)c4cccc(Cl)c4)cc[nH]c3=O)nc12 + Cn1cc(/C=C2\C(=O)Nc3cccnc32)c2ccccc21 [GW441756] (first compound 0.2 µM, partner dose 0.4 µM) | 62.7%
20 | CC(=O)c1c(C)c2cnc(Nc3ccc(N4CCNCC4)cn3)nc2n(C2CCCC2)c1=O [palbociclib] + COc1cc2ncnc(Nc3ccc(Oc4ccccc4)cc3)c2cc1OC [SrcI1] (first compound 0.04 µM, partner dose 2 µM) | 114%
21 | OCc1c[nH]c2ccccc12 [Indole-3-carbinol] + C[C@@H]1CCN(C(=O)CC#N)C[C@@H]1N(C)c1ncnc2[nH]ccc12 [CP690550] (first compound 0.8 µM, partner dose 1 µM) | 54.3%
22 | O=C(CCCCCCC(=O)Nc1ccccc1)NO [vorinostat] + N#Cc1c(O)c2c(-c3ccc(-c4ccccc4O)cc3)csc2[nH]c1=O [A769662] (first compound 0.08 µM, partner dose 2 µM) | 67.3%
23 | C[C@@H]1CCN(C(=O)CC#N)C[C@@H]1N(C)c1ncnc2[nH]ccc12 + O=S(=O)(c1ccccc1)N(CC(F)(F)F)c1ccc(C(O)(C(F)(F)F)C(F)(F)F)cc1 [T0901317] (first compound 1 µM, partner dose 1.4 µM) | 83.2%
24 | NC(=O)Nc1cc(-c2cccc(F)c2)sc1C(=O)N[C@H]1CCCNC1 + COC(=O)c1sccc1S(=O)(=O)Nc1ccc(Nc2ccccc2)cc1OC [GSK0660] (first compound 0.02 µM, partner dose 1 µM) | 144%
25 | C[C@]1(c2nc3c(C(N)=O)cccc3[nH]2)CCCN1 [Veliparib] + O=C(Nc1cccc(Cl)c1)Nc1ncc(CCNc2ncnc3ccsc23)s1 [SNS314] (first compound 1.4 µM, partner dose 0.0008 µM) | 162%
26 | C[C@]1(c2nc3c(C(N)=O)cccc3[nH]2)CCCN1 [Veliparib] + OCCn1cc(-c2cnc3nnn(Cc4ccc5ncccc5c4)c3n2)cn1 [PF04217903] (first compound 1.4 µM, partner dose 1 µM) | 58.9%
27 | COc1cc(Nc2ncc(F)c(Nc3ccc4c(n3)NC(=O)C(C)(C)O4)n2)cc(OC)c1OC [Tamatinib] + CC(C)(C)c1cnc(CSc2cnc(NC(=O)C3CCNCC3)s2)o1 [SNS-032] (first compound 0.4 µM, partner dose 0.01 µM) | 80.7%
28 | NC(=O)Nc1cc(-c2cccc(F)c2)sc1C(=O)N[C@H]1CCCNC1 + O=C(Nc1ccccc1)c1cc([N+](=O)[O-])ccc1Cl [GW9662] (first compound 0.02 µM, partner dose 2 µM) | 75.9%
29 | C#Cc1cccc(Nc2ncnc3cc(OCCOC)c(OCCOC)cc23)c1 [erlotinib] + Cn1c(Nc2ccc(C(F)(F)F)cc2)nc2cc(Oc3ccnc(-c4ncc(C(F)(F)F)[nH]4)c3)ccc21 [CHIR265] (first compound 0.8 µM, partner dose 0.08 µM) | 86.5%
30 | C#Cc1cccc(Nc2ncnc3cc(OCCOC)c(OCCOC)cc23)c1 [erlotinib] + C=CCn1c(=O)c2cnc(Nc3ccc(N4CCN(C)CC4)cc3)nc2n1-c1cccc(C(C)(C)O)n1 [MK1775] (first compound 0.8 µM, partner dose 0.02 µM) | 59%
31 | COCC[n+]1c2c(n(Cc3cnccn3)c1C)C(=O)c1ccccc1C2=O + COC(=O)c1sccc1S(=O)(=O)Nc1ccc(Nc2ccccc2)cc1OC [GSK0660] (first compound 0.0004 µM, partner dose 1 µM) | 71.1%
32 | NC(=O)Nc1cc(-c2cccc(F)c2)sc1C(=O)N[C@H]1CCCNC1 + COc1ccc(COc2ccc(Cc3cnc(N)nc3N)cc2OC)cc1 [GW2580] (first compound 0.02 µM, partner dose 1 µM) | 86.3%

From the supplement of paper PMC4604168 (melanoma cell lines)
